From PubChem BioAssay AID2517 (National Center for Advancing Translational Sciences (NCATS), 2010)
Hit rate of the full screen: of about 350,000 compounds, about 1,200 (0.34%) were called active. Inconclusive results, whose numbers are uncertain, are shown with a selection of clear calls. Calls follow the shape of the dose curve; as a rule, active = well fitted inhibition curve with a large enough effect; inconclusive = small, poorly fitted or top-dose-only effect; inactive = no such curve, though single readings can be large or run the other way. Potencies of inconclusive entries are doubtful fits and often do not repeat.

Protein sequences, listed by entry. Tags and fused reporters are not part of them.
UniProt P27695, whole entry, looked up: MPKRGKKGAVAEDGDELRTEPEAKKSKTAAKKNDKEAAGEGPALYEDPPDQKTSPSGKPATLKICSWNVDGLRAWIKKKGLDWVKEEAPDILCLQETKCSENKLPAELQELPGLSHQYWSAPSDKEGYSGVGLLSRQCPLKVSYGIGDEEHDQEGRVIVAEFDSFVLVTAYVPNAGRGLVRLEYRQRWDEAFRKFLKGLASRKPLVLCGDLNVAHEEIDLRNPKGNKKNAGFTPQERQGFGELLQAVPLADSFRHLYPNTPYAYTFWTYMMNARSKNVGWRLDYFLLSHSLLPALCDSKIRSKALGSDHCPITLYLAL

What follows are compounds tested against DNA repair nuclease/redox regulator APEX1 (Homo sapiens) (UniProt P27695) (assay: qHTS Assay for Inhibitors of the Human Apurinic/apyrimidinic Endonuclease 1 (APE1)). Settings: recombinant APE1, TAMRA/BHQ-2 abasic DNA cleavage fluorescence; activity change, negative = inhibition: at 65.8 µM (top of the series).
Procedure, shortened: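 Endonuclease cleavage of a quenched abasic-site DNA duplex (50 nM) by APE1 (0.75 nM) was tracked by TAMRA dequenching. Compounds were preincubated with enzyme 15 min at room temperature; data normalized to buffer-only and DMSO wells plus NSC13755 control.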
Also: nearly all actives have a fitted effect of over 55% in size.
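For activity change, negative = inhibition in this document: plate controls were vehicle for no effect and reference inhibitor for full effect.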
Potency is read from the fitted curve at half-maximal effect.

| Compound | Potency | activity change, negative = inhibition |
| --- | --- | --- |
| CCc1ccc(CNC(=O)Cn2nc(-c3ccc(C)cc3)ccc2=O)cc1 | inconclusive: 44.7 µM [inhibitor, single point] |  |
| Cc1ccn(C)c(=N)c1 | inconclusive: 6.31 µM [inhibitor, single point] |  |
| CCOc1ccc(N(CC(=O)Nc2cccc(Cl)c2)S(=O)(=O)c2c(C)noc2C)cc1 | inconclusive: 44.7 µM [inhibitor, single point] |  |
| Cc1ccc2oc(=O)c3cc(C(=O)NCCCN4CCCCCC4)sc3c2c1 |  | inactive: -29% |
| O=C(c1ccccc1)c1c2c(cc3sc4ccccc4[n+]13)-c1cccc3cccc-2c13 | inconclusive: 20 µM [inhibitor, single point] |  |
| O=C(/C=C/c1c(F)cccc1Cl)N1CCOCC1 |  | inactive: 3.39% |
| Cc1cccc(CNc2cc(-c3ccccc3Cl)ncn2)c1 | inconclusive: 44.7 µM [inhibitor, single point] |  |
| CCc1nc2ccccc2nc1N1CCN(S(=O)(=O)c2ccc(Cl)cc2)CC1 | inconclusive: 2.82 µM [inhibitor, single point] |  |
| Cc1ccc2c(CC(=O)OCn3nnc4ccccc4c3=O)coc2c1 | inconclusive: 35.5 µM [inhibitor, single point] |  |
| CCC(CO)NC(=O)c1cc2c(s1)CCC2 (configuration not stated) | inconclusive: 0.178 µM [inhibitor, full curve] |  |
| Cc1nnc(NC(=O)CSc2nc3ccccc3[nH]2)s1 | inconclusive: 39.8 µM [inhibitor, single point] |  |
| CCOC(=O)C1=C(CS(=O)(=O)c2ccc(F)c(C)c2)NC(=O)NC1c1ccc(O)c(O)c1 (configuration not stated) |  | inactive: -10.4% |
| CCCSc1oc(-c2ccco2)nc1S(=O)(=O)c1ccccc1 |  | inactive: -4.86% |
| COc1cccc2c(SCC(=O)N/N=C/c3ccc(O)cc3O)cc(C)nc12 |  | inactive: 3.87% |
| COc1ccc(C(=O)O/N=C(\N)c2ccc(Br)cc2)cc1 |  | inactive: 4.28% |
| Nc1cc(Oc2ccc(F)cc2F)cc([N+](=O)[O-])c1 | inconclusive: 44.7 µM [inhibitor, single point] |  |
| Cn1nc(-c2ccccc2)nc1-c1ccccc1 |  | inactive: 12.6% |
| COc1c(Cl)cnn(-c2ccc(Cl)c(Cl)c2)c1=O | inconclusive: 31.6 µM [inhibitor, partial curve] |  |
| Cn1cc(-c2nc3cnc(N4CCNCC4)nc3n(C3CC3)c2=O)c2ccccc21 | inconclusive: 3.55 µM [inhibitor, partial curve] |  |
| Cc1ccccc1NCC(=O)Nc1cc(S(=O)(=O)N2CCCCC2)ccc1C |  | inactive: 18.4% |
| CC1CCCC(NC(=O)COC(=O)c2ccc([N+](=O)[O-])s2)C1C (configuration not stated) | inconclusive: 33.6 µM [inhibitor, single point] |  |
| CCCCNC(=S)NNC(=O)c1cc(C)on1 | inconclusive: 20 µM [inhibitor, partial curve] |  |
| CC(C)(C)OC(=O)N1CCCC1C(=O)NC1COC2CC(n3ccc(=O)[nH]c3=O)OC12 (configuration not stated) |  | inactive: 2.46% |
| O=C1NC(=Nc2ccccc2)S/C1=C\c1cccs1 | inconclusive: 25.1 µM [inhibitor, single point] |  |

Taken from above.
Cc1cccc(CNc2cc(-c3ccccc3Cl)ncn2)c1 – Potency: inconclusive: 44.7 µM [inhibitor, single point]
Cn1nc(-c2ccccc2)nc1-c1ccccc1 – activity change, negative = inhibition: inactive: 12.6%
O=C(/C=C/c1c(F)cccc1Cl)N1CCOCC1 – activity change, negative = inhibition: inactive: 3.39%

The results go on:

| Compound | Potency | activity change, negative = inhibition |
| --- | --- | --- |
| OCC1(Cc2ccccc2)CCCN(Cc2c[nH]c3ccccc23)C1 (configuration not stated) | inconclusive: 0.0631 µM [inhibitor, full curve, poor fit] |  |
| COc1ccc(OC)c(S(=O)(=O)Nc2cccnc2)c1 | inconclusive: 0.0016 µM [inhibitor, full curve, poor fit] |  |
| Cc1ccc(NC(=O)COC(=O)/C=C/c2ccc(Br)o2)cc1S(=O)(=O)N(C)C | inconclusive: 44.7 µM [inhibitor, single point] |  |
| COc1ccc(-c2ccc(Nc3ccc(C(=O)N4CCOCC4)cc3)nn2)cc1OC |  | inactive: -1.7% |
| C=CCn1c(CCSCc2ccc(OC)c(C)c2)n[nH]c1=S | inconclusive: 3.55 µM [inhibitor, single point] |  |
| Cc1cccc(NC(=O)CN2C(=O)N/C(=C/c3ccc(-c4cccc(C(=O)O)c4C)o3)C2=O)c1 |  | inactive: -3.64% |
| CCCCCCCC1=CC2=C(Cl)C(=O)C(C)(OC(C)=O)C(=O)C2=CN1C (configuration not stated) |  | inactive: -5.05% |
| NC(=O)CNC(=O)c1cccc(Cl)c1 | inconclusive: 3.98 µM [inhibitor, single point] |  |
| COc1cc(NC(=O)/C=C/c2ccccc2[N+](=O)[O-])cc(OC)c1 | inconclusive: 1 µM [inhibitor, full curve, poor fit] |  |
| FC(F)(F)c1cnc2c(-c3ccccc3)n[nH]c2c1 | inconclusive: 8.91 µM [inhibitor, partial curve] |  |
| CC(C)C(C(=O)OCC(=O)c1cccc([N+](=O)[O-])c1)N1C(=O)[C@@H]2[C@H]3CC[C@H](C3)[C@@H]2C1=O (some centres not stated) | inconclusive: 39.8 µM [inhibitor, single point] |  |
| CSCC[C@@H](Nc1nc(-c2ccccc2)nc2c1oc1ccccc12)C(=O)O | inconclusive: 31.6 µM [inhibitor, single point] |  |
| Cc1onc(-c2c(F)cccc2Cl)c1C(=O)Nc1ccccc1N1CCOCC1 | inconclusive: 4.47 µM [inhibitor, partial curve] |  |
| COc1ccc2c(c1)c(=O)oc1cc(OCC(=O)N3CCCC(C)C3)ccc12 (configuration not stated) | inconclusive: 20 µM [inhibitor, single point] |  |
| N#C/C(=C\c1ccc(O)c(O)c1)C(=O)NCCCCc1ccccc1 | inconclusive: 39.8 µM [inhibitor, partial curve, poor fit] |  |
| O=C(NNC(=O)c1ccc(NC(=O)c2ccccc2)cc1)c1ccc(F)cc1 | inconclusive: 23.8 µM [inhibitor, single point] |  |
| O=C(CCc1ccccc1)NNC(=O)Nc1ccccc1 |  | inactive: -1.13% |
| Cc1ccccc1N1CC(=O)N(c2ccccc2C)CC1=O |  | inactive: 0.0001% |
| Cc1nn2cc(-c3ccc(Cl)cc3)cnc2c1Br | inconclusive: 3.55 µM [inhibitor, single point] |  |
| O=C(CCC(=O)Nc1ccc(F)cc1)N/N=C/c1ccccc1O |  | inactive: 8.19% |
| CCOc1ccc(CCNC(=O)CCS(=O)(=O)c2ccc(Br)cc2)cc1OCC |  | inactive: 6.16% |
| O=[N+]([O-])c1c(NCCO)cc(N2CCCCCC2)c2nonc12 |  | inactive: 11.6% |
| COc1ccc(CCNC(=O)CSc2ccsc2[N+](=O)[O-])cc1OC |  | inactive: -3.06% |
